Laboratory results: PubChem BioAssay AID686937 (Drosophila RNAi Screening Center, 2013)
Purpose: 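Knock-downs that reduce output of a secreted reporter enzyme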 (primary screen). Cells: Drosophila S2 cells expressing secreted horseradish peroxidase. Knock-down reagent: long dsRNA against Drosophila genes. Time to read-out: about 5.5 days (5 days dsRNA, then 12 h reporter induction). Treatment: reporter expression induced after 5 days of dsRNA, read 12 h later; inducer not stated. Measurement: 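Chemiluminescent measurement of peroxidase in the medium 12 h after reporter induction, following 5 days of dsRNA, given as a z-score per plate; higher means more secretion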. Scale: z-score: higher = more reporter secreted into medium.
The deposit covers about 23,000 reagents; this is an unselected part of those that have a named target and a result. 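Reduced-secretion tags in replicate 1 do not always agree with the z-scores; no criterion for assigning the tags was given.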 A plus sign joins genes that one reagent is predicted to hit. Further read-outs or replicates are left out here. No sequences are given here. The record does not give: the amount of reagent.

With CG10311 [DRSC14228], what was measured?
z-score, replicate 1: 0.21

What did the screen give for Tomosyn [DRSC19365]?
z-score, replicate 1: 0.12

With Tomosyn [DRSC19692], how do the results read?
z-score, replicate 1: -6.37

What did the screen give for Tomosyn [DRSC19782]?
z-score, replicate 1: 0.12

For Tomosyn [DRSC19842], what was measured?
z-score, replicate 1: 0.26

What did the screen give for Snr1 (Snf5-related 1) [DRSC12369]?
z-score, replicate 1: -0.98

What did the screen give for CG3515 [DRSC00609]?
z-score, replicate 1: 0.46

With Arpc3A (Actin-related protein 2/3 complex, subunit 3A) [DRSC15596], what does the deposit list?
z-score, replicate 1: 0.16

What did the screen give for NHP2 [DRSC11229]?
z-score, replicate 1: 0.11

With CG17560 [DRSC15242], what does the deposit list?
z-score, replicate 1: 0.55

Which result is listed for CG3618 [DRSC11746]?
z-score, replicate 1: 0.24

For CG30058 + CG34235 + CG34312 [DRSC05401], what does the deposit list?
z-score, replicate 1: -0.19

For CG17266 [DRSC04979], what does the deposit list?
z-score, replicate 1: 0.25

For CG17266 [DRSC22368], how do the results read?
z-score, replicate 1: 0.3

What is on record for CG6337 [DRSC06977]?
z-score, replicate 1: 0.37

What is on record for CG6337 [DRSC21870]?
z-score, replicate 1: -0.46

What did the screen give for kappaB-Ras + CG30503 [DRSC06619]?
z-score, replicate 1: 0.33

Which result is listed for kappaB-Ras + CG30503 [DRSC07636]?
z-score, replicate 1: 0.17

For Coq8 (Coenzyme Q8) [DRSC19900], what was measured?
z-score, replicate 1: 0.28

With Smn (survival motor neuron) [DRSC10223], what was measured?
z-score, replicate 1: 0.45

For CG2906 [DRSC06841], what was measured?
z-score, replicate 1: 0.34

What did the screen give for Snx16 (Sorting nexin 16) [DRSC06984]?
z-score, replicate 1: 0.25

For CG32344 [DRSC08578], what was measured?
z-score, replicate 1: 0.14

For Ns2 (Nucleostemin 2) [DRSC06993], how do the results read?
z-score, replicate 1: 0.37

What did the screen give for CG1537 [DRSC19662]?
z-score, replicate 1: 0.36

With Ass + CG31286 [DRSC12493], what does the deposit list?
z-score, replicate 1: 0.21

Which result is listed for CG17549 [DRSC02625]?
z-score, replicate 1: 0.45
